Assay results taken from article PMC4884944.
No constants are given. Whether binding was seen depends on the method and setting. In cells and extracts the contact can be indirect. Some results given as binding are weak or reduced against the parent protein; the word gives no strength. For some assays here: Where a sequence is shown, tags or fusion partners need not be part of it. Values belong to the molecule of their own block, whether it stands above or below them.

Chains of the proteins cited; added tags and fusions are not shown.
UniProt Q05086: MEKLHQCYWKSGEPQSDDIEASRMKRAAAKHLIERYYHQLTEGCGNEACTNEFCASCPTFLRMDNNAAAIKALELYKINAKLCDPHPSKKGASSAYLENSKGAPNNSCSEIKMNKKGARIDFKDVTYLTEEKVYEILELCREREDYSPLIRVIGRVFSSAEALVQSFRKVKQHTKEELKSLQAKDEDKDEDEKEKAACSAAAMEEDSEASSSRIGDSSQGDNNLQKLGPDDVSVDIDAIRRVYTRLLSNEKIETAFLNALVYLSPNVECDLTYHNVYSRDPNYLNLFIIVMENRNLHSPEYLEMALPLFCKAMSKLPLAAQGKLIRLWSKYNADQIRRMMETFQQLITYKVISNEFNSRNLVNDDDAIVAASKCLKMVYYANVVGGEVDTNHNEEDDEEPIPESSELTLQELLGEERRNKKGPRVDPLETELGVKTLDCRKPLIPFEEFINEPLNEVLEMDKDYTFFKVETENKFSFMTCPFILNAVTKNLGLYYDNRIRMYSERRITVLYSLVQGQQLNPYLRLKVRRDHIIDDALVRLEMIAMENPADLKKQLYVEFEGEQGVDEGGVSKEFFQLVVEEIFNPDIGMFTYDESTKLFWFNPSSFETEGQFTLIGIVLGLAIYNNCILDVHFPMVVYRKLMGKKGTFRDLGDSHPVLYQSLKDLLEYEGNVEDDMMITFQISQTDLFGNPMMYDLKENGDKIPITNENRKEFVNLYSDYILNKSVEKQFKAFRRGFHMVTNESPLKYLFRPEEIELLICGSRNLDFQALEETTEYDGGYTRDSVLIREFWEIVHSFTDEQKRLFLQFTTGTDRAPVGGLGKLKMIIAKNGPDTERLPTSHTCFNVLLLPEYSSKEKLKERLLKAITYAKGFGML
UniProt P61244: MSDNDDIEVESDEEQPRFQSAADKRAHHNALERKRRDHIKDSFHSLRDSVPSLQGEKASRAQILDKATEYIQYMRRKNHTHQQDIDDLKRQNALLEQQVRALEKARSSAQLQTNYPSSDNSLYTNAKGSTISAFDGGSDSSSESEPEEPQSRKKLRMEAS

Assays:
[1] = biological target: T1, MAX-binding protein MNT, endogenous in myeloid cells (human (endogenous in HL60 and U937)) (UniProt Q99583); assay: co-IP; MNT antibody; endogenous proteins in HL60 whole cell extracts; cells treated with 1 uM ATRA for 24 h, with or without 10 uM MG132 6 h before harvest; blot with anti-MNT then anti-E6AP
T1 sequence: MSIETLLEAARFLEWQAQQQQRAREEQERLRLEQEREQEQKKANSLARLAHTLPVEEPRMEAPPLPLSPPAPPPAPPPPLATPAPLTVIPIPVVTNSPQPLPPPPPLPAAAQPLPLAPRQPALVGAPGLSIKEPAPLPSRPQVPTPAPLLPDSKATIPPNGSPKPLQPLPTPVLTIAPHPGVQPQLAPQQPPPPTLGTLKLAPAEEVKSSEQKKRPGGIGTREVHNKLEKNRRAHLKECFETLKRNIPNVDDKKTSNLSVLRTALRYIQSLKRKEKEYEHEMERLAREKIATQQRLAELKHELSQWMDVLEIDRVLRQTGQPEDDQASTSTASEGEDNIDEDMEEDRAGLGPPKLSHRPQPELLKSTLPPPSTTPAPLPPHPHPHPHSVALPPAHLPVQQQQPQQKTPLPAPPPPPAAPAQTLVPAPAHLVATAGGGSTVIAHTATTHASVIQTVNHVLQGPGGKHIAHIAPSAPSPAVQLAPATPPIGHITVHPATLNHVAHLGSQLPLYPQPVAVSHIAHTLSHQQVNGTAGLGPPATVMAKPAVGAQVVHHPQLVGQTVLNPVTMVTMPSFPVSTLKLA

[2] = biological target: T1, MAX-binding protein MNT, endogenous in myeloid cells (human (endogenous in HL60 and U937)); assay: co-IP; endogenous proteins in HL60 cells during differentiation induced with 1 uM ATRA; which protein was precipitated is not told
[3] = biological target: GST-tagged E6AP (ubiquitin-protein ligase E6-associated protein) (UniProt Q05086); assay: pull-down; GST and GST-E6AP with lysates of 293T cells transfected with 0.5 ug HA-MNT; immunoblot; only the target purified
[4] = biological target: E6AP expressed from pcDNA3.1-E6AP (UniProt Q05086); assay: co-IP; E6AP antibody; lysates of HEK293T co-transfected with 1.0 ug HA-MNT and 0.5 ug E6AP; blot with anti-E6AP and anti-HA; with or without 10 uM MG132 or 10 uM Lactacystin 6 h before harvest
[5] = biological target: E6AP, endogenous in myeloid cells (human (endogenous in HL60 and U937)) (UniProt Q05086); assay: co-IP; E6AP antibody; endogenous proteins in U937 whole cell extracts; cells treated with 5 nM PMA for 24 h, with or without 10 uM MG132 6 h before harvest; blot with E6AP then MNT antibody

binding [1]: binds
Molecule: E6AP, endogenous in myeloid cells (from UniProt Q05086 1-875) (enzyme)

binding [2]: binds
Molecule: Protein max, endogenous in HL60 cells (from UniProt P61244 1-160)

The remaining lines, values behind:

B1: HA-MNT (protein, UniProt Q99583 1-582)
chain: MSIETLLEAARFLEWQAQQQQRAREEQERLRLEQEREQEQKKANSLARLAHTLPVEEPRMEAPPLPLSPPAPPPAPPPPLATPAPLTVIPIPVVTNSPQPLPPPPPLPAAAQPLPLAPRQPALVGAPGLSIKEPAPLPSRPQVPTPAPLLPDSKATIPPNGSPKPLQPLPTPVLTIAPHPGVQPQLAPQQPPPPTLGTLKLAPAEEVKSSEQKKRPGGIGTREVHNKLEKNRRAHLKECFETLKRNIPNVDDKKTSNLSVLRTALRYIQSLKRKEKEYEHEMERLAREKIATQQRLAELKHELSQWMDVLEIDRVLRQTGQPEDDQASTSTASEGEDNIDEDMEEDRAGLGPPKLSHRPQPELLKSTLPPPSTTPAPLPPHPHPHPHSVALPPAHLPVQQQQPQQKTPLPAPPPPPAAPAQTLVPAPAHLVATAGGGSTVIAHTATTHASVIQTVNHVLQGPGGKHIAHIAPSAPSPAVQLAPATPPIGHITVHPATLNHVAHLGSQLPLYPQPVAVSHIAHTLSHQQVNGTAGLGPPATVMAKPAVGAQVVHHPQLVGQTVLNPVTMVTMPSFPVSTLKLA
binding [3]: binds
binding [4]: binds

B2: MAX-binding protein MNT, endogenous in myeloid cells (protein, UniProt Q99583 1-582)
chain: MSIETLLEAARFLEWQAQQQQRAREEQERLRLEQEREQEQKKANSLARLAHTLPVEEPRMEAPPLPLSPPAPPPAPPPPLATPAPLTVIPIPVVTNSPQPLPPPPPLPAAAQPLPLAPRQPALVGAPGLSIKEPAPLPSRPQVPTPAPLLPDSKATIPPNGSPKPLQPLPTPVLTIAPHPGVQPQLAPQQPPPPTLGTLKLAPAEEVKSSEQKKRPGGIGTREVHNKLEKNRRAHLKECFETLKRNIPNVDDKKTSNLSVLRTALRYIQSLKRKEKEYEHEMERLAREKIATQQRLAELKHELSQWMDVLEIDRVLRQTGQPEDDQASTSTASEGEDNIDEDMEEDRAGLGPPKLSHRPQPELLKSTLPPPSTTPAPLPPHPHPHPHSVALPPAHLPVQQQQPQQKTPLPAPPPPPAAPAQTLVPAPAHLVATAGGGSTVIAHTATTHASVIQTVNHVLQGPGGKHIAHIAPSAPSPAVQLAPATPPIGHITVHPATLNHVAHLGSQLPLYPQPVAVSHIAHTLSHQQVNGTAGLGPPATVMAKPAVGAQVVHHPQLVGQTVLNPVTMVTMPSFPVSTLKLA
binding [5]: binds
